From publication PMC7819943, “Rice protein-binding microarrays: a tool to detect cis-acting elements near promoter regions in rice” come the findings set out here.

The chains behind the UniProt entries cited, without tags or fusion partners.
UniProt Q0JBA9, entry or part of it: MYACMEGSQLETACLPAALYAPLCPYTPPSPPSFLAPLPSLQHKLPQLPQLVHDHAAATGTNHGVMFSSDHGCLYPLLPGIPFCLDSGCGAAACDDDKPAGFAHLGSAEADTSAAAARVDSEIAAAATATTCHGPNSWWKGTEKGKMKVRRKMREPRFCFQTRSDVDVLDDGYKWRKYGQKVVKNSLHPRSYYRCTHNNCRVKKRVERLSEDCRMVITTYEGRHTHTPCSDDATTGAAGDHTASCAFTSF

This is one part of the list.

The test concerns the target OsWRKY34 (Oryza sativa, UniProt Q0JBA9 1-250). As to the kind of experiment: protein-binding microarray (RPBM); PBS, 2% BSA, 51.3 ng/ul salmon testes DNA, 50 uM zinc acetate, 200 nM TF, 25 C, 1 h; high values mean tight binding. Particulars: protein: recombinant; tags: N-terminal polyhistidine and DsRed monomer fusion (pET32a); label: CyDye5-dUTP incorporated in the synthesized complementary strand; 3' TTTTT single-stranded linker to array surface; dsDNA, one strand shown. The method in brief: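 The binding signal for each feature is its fluorescence intensity in arbitrary units. An Axon 4000B scanner was used to read a custom Agilent array that had been made double-stranded with Cy5-dUTP primer extension, blocked with 2% BSA, incubated at 25 °C for 1 h with 200 nM protein in PBS, 2% BSA, salmon testes DNA and 50 µM zinc acetate, and washed. The protein was an N-terminal polyhistidine–DsRed transcription factor fusion from E. coli BL21-CodonPlus, purified on Ni–NTA.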
For the sequence “TTCGGGCCCAGGTCGTCCCATGCACCATAACCGTTTGCTCCGGAGTCACCTAGTGCAG”, the binding signal was 10500 fluorescence intensity (a.u.). On to “TTTAAAAAATTTTGTGTGGTTGTGTGGTGTACTGTAGTAGCGGAGTCACCTAGTGCAG”, for which the binding signal is 8280 fluorescence intensity (a.u.).

On to “GATATTGGAGGTGCATCTGTTAGGGTTCGGGTTCTCTCTACGGAGTCACCTAGTGCAG”, for which the binding signal was 16700 fluorescence intensity (a.u.). Turning to “ATATGCCCATTGTTTGTTTGTTTATCCGTCGTAATCTCTCCGGAGTCACCTAGTGCAG”, the binding signal was 9570 fluorescence intensity (a.u.).

Consider “ATTGTTTGTTCTTCAGCTACTGTTTCAAGTTTACACGTACCGGAGTCACCTAGTGCAG”, for which the binding signal is 12300 fluorescence intensity (a.u.). Take “AGATTTGTGTGTGTGGTTGCTGTTGCTGTGTGTGAATGGACGGAGTCACCTAGTGCAG”: the binding signal was 10200 fluorescence intensity (a.u.). In the case of “CACACACACTGCACTTCGGCTCACTCTCTCCACTGTTCTTCGGAGTCACCTAGTGCAG”, the binding signal is 16700 fluorescence intensity (a.u.).

With “AGGGTTACGTGTGGGAGGAGGGAGGTGGATGTGGAAAGATCGGAGTCACCTAGTGCAG”, the binding signal was 8460 fluorescence intensity (a.u.). Under “GTGTCTTGTACATGTCTTCGTTTCTTCCTTTCTCATTTCACGGAGTCACCTAGTGCAG” stands 10900 fluorescence intensity (a.u.); under “GAGCCTCGTCCCTATCCCACATCACCTTGCTCGATCGCCTCGGAGTCACCTAGTGCAG”, 10600 fluorescence intensity (a.u.).

For “GTCATAGCCTCACCGTCCATCATCTTCTTCATCTTCACCCCGGAGTCACCTAGTGCAG”, the binding signal is 12000 fluorescence intensity (a.u.). As to “CATTGGAGCGCTGTCTCCTGCTGCTGCACAGTCTACTCTCCGGAGTCACCTAGTGCAG”, the binding signal was 8850 fluorescence intensity (a.u.). With “CTACTACTCTGTTCTTCTGGAAGAACACTGGTCTCCTCGCCGGAGTCACCTAGTGCAG” the figure was 8380 fluorescence intensity (a.u.).

“CGCTTGATCTGGGGTGGGGTCGCGAGTGGTGGAGGAGGTGCGGAGTCACCTAGTGCAG”: the binding signal is 16600 fluorescence intensity (a.u.). Under “CCTCCGCTTCGTCCTGTCCTCCCACCTCGCCGCGCCTGACCGGAGTCACCTAGTGCAG” stands 9980 fluorescence intensity (a.u.); under “CACACCATATTTGCCTATTCTTTTCCTTTACTTCTGAACTCGGAGTCACCTAGTGCAG”, 8080 fluorescence intensity (a.u.).

As for “CAAGGTGGTACTAAACATGCGCACACCGCTTTCATGGGCCCGGAGTCACCTAGTGCAG”, the binding signal was 8180 fluorescence intensity (a.u.). Under “ACTTGAAAGTACGCCACATTTTCGCGCTGCCCTTAACTTACGGAGTCACCTAGTGCAG” stands 10700 fluorescence intensity (a.u.); under “GTATTTTGCAATCCTCTGTTTTACACTTATATTTCTATCACGGAGTCACCTAGTGCAG”, 8030 fluorescence intensity (a.u.); under “GATGGTGTGTGTGTGTGGCTGTGTGCACCTAAGAATTTCTCGGAGTCACCTAGTGCAG”, 10400 fluorescence intensity (a.u.). As for “CCCGGCGTCCTCCTGCTTCCCACCGCATCGTCGCTCGCCGCGGAGTCACCTAGTGCAG”, the binding signal is 8120 fluorescence intensity (a.u.). As to “TCGCCGCTATAAGTATCCCGCTGCTCGTCGCAAAGTCAACCGGAGTCACCTAGTGCAG”, the binding signal is 9280 fluorescence intensity (a.u.). Take “TAATTTAGCGGGGTCATTAGGGTGTAGTCAAATCAAGCCACGGAGTCACCTAGTGCAG”: the binding signal was 8890 fluorescence intensity (a.u.).

As to “CAAATTGTCTACGGTGTGTTCTTTGTTATGCTCTCTTCGTCGGAGTCACCTAGTGCAG”, the binding signal was 10600 fluorescence intensity (a.u.). For “TTTTGAGACTAGTTTTCACTGACATGGCACGTTGACTTGGCGGAGTCACCTAGTGCAG”, the binding signal was 10500 fluorescence intensity (a.u.). As for “CGAAAGGTCAAACGTTGGTTAAAAAGTCAACGGCGTTATACGGAGTCACCTAGTGCAG”, the binding signal was 11500 fluorescence intensity (a.u.). As to “GTCGTGTCTCCCCATCTTCACTTGTTTTCTCGCCAAATCCCGGAGTCACCTAGTGCAG”, the binding signal is 8270 fluorescence intensity (a.u.).

Regarding “ACTTTTGTTGATTATAACTCACACTCACACTATATTTTCACGGAGTCACCTAGTGCAG”, the binding signal is 11100 fluorescence intensity (a.u.). With “CCGTCGGAGGATTCCTGTCCCTGCCCACGCCGCCGCCTTCCGGAGTCACCTAGTGCAG”, the binding signal was 9130 fluorescence intensity (a.u.). Under “CCCTTCCTGACGACCTACCTGCCGATCGCCACTACAATCTCGGAGTCACCTAGTGCAG” stands 10100 fluorescence intensity (a.u.); under “CTGATGTCTGAACGACTGTACCCGACGTTGTTGATTGCTTCGGAGTCACCTAGTGCAG”, 9820 fluorescence intensity (a.u.). As for “TCTAGGGTTGTAATCTTGTAATTTTTTTCTGCTCTATCAACGGAGTCACCTAGTGCAG”, the binding signal was 9190 fluorescence intensity (a.u.).

As for “ACTAATTGCACTGCTCCCACACCTTAATCGATCTTAATTACGGAGTCACCTAGTGCAG”, the binding signal was 9300 fluorescence intensity (a.u.). Regarding “GGTTGAGGGTGTGGGAGCTCCTCTCATTTTGTTTATGAATCGGAGTCACCTAGTGCAG”, the binding signal is 10100 fluorescence intensity (a.u.). With “CGTCAGCTCCGGCTACCGTGGTCAATGTGCACAATATTTCCGGAGTCACCTAGTGCAG” the figure was 9920 fluorescence intensity (a.u.); with “GCAGGTTAGGTCGCGGCAGGTGGTGGTGGTAGGAAGAAGACGGAGTCACCTAGTGCAG”, 8360 fluorescence intensity (a.u.); with “TTATTCATTTTCTTTATATTGTTATTTTCCTTTTTGTGTTCGGAGTCACCTAGTGCAG”, 8050 fluorescence intensity (a.u.). Under “TTTGTTCCAAATTGTAGACTTGTTTTGCGCTTCGTTTTGTCGGAGTCACCTAGTGCAG” stands 10100 fluorescence intensity (a.u.); under “GCAGTAGAATAAAATTTTCACCTCTGGTTTTTATAATCCACGGAGTCACCTAGTGCAG”, 8720 fluorescence intensity (a.u.); under “GGGTCTTTTGGGTTGGAGTGGAGCTGTGGAGCAACAAAAACGGAGTCACCTAGTGCAG”, 10200 fluorescence intensity (a.u.). Take “TTCCCATACGCGTCCCACCCGCCGCCGCCCTCGTCTCCGCCGGAGTCACCTAGTGCAG”: the binding signal is 8800 fluorescence intensity (a.u.). Regarding “ACTTGAGAGACACATTGTATTTCCATTGGTATATTGTCTCCGGAGTCACCTAGTGCAG”, the binding signal was 8610 fluorescence intensity (a.u.).

Consider “GGTCTGCCTATAAATACCAGCCATTTCCTCATCGTTCCTCCGGAGTCACCTAGTGCAG”, for which the binding signal is 8060 fluorescence intensity (a.u.). In the case of “TCCACATCATTTCCACGGCCCCTATTGTCCGCTTGCTCTCCGGAGTCACCTAGTGCAG”, the binding signal is 9110 fluorescence intensity (a.u.).

As to “ACCTCGCGTCGCTCGCGGCGCCTTCCCGCGCCGCCCACCCCGGAGTCACCTAGTGCAG”, the binding signal was 10100 fluorescence intensity (a.u.). With “AATTACTACTCCTAGGTTAATTCATTTTTTCTTTTTCTAACGGAGTCACCTAGTGCAG”, the binding signal was 8630 fluorescence intensity (a.u.). Under “CTTATATGGGTAGGGCGTGCGCGCGTGTGATTATAGGGGTCGGAGTCACCTAGTGCAG” stands 8620 fluorescence intensity (a.u.); under “TAACCCACGGCAGCGACCTATCATTCCGTCAAGGGCTCGCCGGAGTCACCTAGTGCAG”, 8250 fluorescence intensity (a.u.). Under “TTTGCGCTCTCCGGTTGATCAGCTCCAATTTCTCAACTTCCGGAGTCACCTAGTGCAG” stands 9170 fluorescence intensity (a.u.); under “CTCTCTCTCGTCCTCTTCTATGGCAAGCTTGGACTGTAGACGGAGTCACCTAGTGCAG”, 8970 fluorescence intensity (a.u.). With “TATATATATATATATATATATATATATATATATGTGTGTGCGGAGTCACCTAGTGCAG”, the binding signal is 18100 fluorescence intensity (a.u.). For the sequence “GACCATGTTGCCCTTGCCAGATTCGACCTTATCCGCTTTCCGGAGTCACCTAGTGCAG”, the binding signal was 10500 fluorescence intensity (a.u.). For the sequence “TTCTCTTTCTGTGTATCGTATGCTTCGCACTTTCTACTTTCGGAGTCACCTAGTGCAG”, the binding signal is 8960 fluorescence intensity (a.u.).

For “TGCGTGTATCCCATTCCCACCCGCCCACCACATATCCTTTCGGAGTCACCTAGTGCAG”, the binding signal was 11000 fluorescence intensity (a.u.).
